Assay results reported in publication PMC5514116.
No constants are given. Whether binding was seen depends on the method and setting. For some of these results: In cells and extracts the contact can be indirect. Some entries that bind do so weakly or less than the wild type.

By UniProt entry, the sequences of proteins in these tests, tags left out. Residues count along the entry.
UniProt Q9WVJ9, residues 28-443: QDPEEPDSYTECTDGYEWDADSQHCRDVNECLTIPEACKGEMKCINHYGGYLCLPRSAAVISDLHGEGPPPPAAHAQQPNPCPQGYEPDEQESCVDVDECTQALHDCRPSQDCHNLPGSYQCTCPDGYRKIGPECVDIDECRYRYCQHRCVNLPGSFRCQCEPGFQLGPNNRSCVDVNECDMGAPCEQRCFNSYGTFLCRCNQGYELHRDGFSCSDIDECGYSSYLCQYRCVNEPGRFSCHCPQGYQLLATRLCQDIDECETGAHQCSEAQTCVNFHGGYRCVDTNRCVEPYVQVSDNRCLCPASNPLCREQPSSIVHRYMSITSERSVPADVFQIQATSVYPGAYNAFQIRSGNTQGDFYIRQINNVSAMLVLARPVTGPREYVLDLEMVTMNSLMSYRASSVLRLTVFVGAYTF
UniProt Q99K41, residues 22-1017: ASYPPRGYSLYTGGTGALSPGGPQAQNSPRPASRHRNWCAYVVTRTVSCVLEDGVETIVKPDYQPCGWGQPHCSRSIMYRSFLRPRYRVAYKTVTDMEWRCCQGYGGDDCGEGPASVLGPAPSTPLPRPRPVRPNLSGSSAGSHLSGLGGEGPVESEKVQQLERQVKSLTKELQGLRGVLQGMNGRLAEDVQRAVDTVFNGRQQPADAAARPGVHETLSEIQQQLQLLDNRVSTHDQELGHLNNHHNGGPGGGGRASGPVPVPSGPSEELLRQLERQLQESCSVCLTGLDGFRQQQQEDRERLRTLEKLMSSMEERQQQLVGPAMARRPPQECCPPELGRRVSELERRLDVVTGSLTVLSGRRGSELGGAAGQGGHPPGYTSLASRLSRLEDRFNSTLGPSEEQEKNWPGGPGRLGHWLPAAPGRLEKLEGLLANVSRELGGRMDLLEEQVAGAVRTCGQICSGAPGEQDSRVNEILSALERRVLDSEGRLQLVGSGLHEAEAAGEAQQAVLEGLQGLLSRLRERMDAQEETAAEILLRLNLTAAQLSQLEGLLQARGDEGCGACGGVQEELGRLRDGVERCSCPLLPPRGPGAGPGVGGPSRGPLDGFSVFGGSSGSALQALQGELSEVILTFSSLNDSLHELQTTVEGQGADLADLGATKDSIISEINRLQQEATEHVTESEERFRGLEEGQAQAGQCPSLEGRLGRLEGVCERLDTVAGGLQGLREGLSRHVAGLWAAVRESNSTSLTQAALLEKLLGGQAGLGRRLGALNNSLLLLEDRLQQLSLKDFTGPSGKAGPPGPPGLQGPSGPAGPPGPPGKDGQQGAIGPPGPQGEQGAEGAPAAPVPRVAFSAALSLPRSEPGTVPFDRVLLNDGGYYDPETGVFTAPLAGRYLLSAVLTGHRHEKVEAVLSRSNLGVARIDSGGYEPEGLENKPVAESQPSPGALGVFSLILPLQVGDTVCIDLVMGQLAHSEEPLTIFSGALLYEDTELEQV
UniProt Q9Y6C2, residues 22-1016: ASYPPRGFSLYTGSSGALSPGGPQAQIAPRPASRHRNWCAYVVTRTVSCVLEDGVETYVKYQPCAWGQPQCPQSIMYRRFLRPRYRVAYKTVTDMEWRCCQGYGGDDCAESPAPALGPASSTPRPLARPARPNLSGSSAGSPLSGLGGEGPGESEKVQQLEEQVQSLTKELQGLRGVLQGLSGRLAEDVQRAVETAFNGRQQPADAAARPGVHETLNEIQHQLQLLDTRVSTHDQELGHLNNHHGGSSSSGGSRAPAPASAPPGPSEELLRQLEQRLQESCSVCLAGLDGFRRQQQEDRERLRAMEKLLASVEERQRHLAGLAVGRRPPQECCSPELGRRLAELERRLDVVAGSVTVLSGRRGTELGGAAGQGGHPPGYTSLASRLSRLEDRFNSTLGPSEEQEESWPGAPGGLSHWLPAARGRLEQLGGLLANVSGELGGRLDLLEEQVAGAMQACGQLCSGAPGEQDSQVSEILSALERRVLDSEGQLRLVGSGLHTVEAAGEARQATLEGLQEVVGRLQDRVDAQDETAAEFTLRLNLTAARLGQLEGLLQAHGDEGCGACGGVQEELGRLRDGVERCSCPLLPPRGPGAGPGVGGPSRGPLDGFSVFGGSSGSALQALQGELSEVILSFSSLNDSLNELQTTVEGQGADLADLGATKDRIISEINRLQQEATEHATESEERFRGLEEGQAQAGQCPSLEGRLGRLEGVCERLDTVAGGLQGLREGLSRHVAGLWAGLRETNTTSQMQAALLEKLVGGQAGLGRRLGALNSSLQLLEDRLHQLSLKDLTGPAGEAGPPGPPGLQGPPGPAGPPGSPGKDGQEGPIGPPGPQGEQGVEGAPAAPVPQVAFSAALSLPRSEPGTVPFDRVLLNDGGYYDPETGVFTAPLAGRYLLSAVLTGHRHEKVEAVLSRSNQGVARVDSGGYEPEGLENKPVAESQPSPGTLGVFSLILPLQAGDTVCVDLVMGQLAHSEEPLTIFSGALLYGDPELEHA
UniProt Q8K482, residues 34-1074: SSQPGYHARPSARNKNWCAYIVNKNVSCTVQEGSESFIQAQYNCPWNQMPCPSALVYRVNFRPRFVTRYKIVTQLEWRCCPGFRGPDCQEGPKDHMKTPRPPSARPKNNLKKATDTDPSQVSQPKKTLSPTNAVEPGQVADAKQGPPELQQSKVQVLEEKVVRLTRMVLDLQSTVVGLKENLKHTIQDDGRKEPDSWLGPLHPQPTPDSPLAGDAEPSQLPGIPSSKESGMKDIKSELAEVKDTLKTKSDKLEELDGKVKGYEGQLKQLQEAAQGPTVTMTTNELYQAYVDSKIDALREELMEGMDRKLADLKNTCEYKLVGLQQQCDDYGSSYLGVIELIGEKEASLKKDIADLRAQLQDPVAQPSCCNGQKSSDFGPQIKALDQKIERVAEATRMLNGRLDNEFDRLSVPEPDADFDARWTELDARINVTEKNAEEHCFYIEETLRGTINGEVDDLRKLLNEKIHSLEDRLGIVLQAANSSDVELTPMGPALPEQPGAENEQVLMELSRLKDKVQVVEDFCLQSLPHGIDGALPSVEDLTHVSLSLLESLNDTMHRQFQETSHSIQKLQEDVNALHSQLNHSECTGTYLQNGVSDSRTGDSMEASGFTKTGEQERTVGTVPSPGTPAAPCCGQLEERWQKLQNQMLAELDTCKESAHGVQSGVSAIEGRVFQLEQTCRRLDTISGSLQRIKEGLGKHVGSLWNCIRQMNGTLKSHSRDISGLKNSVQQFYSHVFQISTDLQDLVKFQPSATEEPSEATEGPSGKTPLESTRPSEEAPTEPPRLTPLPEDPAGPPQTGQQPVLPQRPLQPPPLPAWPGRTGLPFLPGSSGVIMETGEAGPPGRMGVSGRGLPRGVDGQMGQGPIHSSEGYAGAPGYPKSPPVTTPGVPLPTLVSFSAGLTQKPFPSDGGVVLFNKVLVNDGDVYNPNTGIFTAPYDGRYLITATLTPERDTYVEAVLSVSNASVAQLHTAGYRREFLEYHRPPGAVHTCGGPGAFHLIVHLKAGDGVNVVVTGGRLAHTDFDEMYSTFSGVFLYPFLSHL

Experiments:
[1] = target: recombinant murine C-terminally 2xStrepII tagged full length fibulin-4 (murine) (UniProt Q9WVJ9); assay: pull-down; recombinant 2xStrep-tagged fibulin-4 mixed with conditioned media of transfected EBNA cells, 2 hours at 4 °C, precipitated with Strep-Tactin Sepharose; washed with 50 mM Tris-HCl pH 7.5, 150 mM NaCl, 2 mM EDTA, 1% Triton X-100; western blot; only the target purified
[2] = target: FLAG-EMILIN-1 (murine EMILIN-1 with a FLAG tag at the N-terminus) (murine) (UniProt Q99K41); assay: co-IP; FLAG-EMILIN-1 conditioned medium immunoprecipitated with anti-FLAG M2 affinity gel (2 hours, 4 °C), washed, incubated overnight at 4 °C with MC3T3-E1 conditioned serum free medium; western blot with a fibulin-4 antibody
[3] = target: purified recombinant human EMILIN-1 (human) (UniProt Q9Y6C2); assay: ELISA; human EMILIN-1 coated (100 nM/well, PBS 1 M NaCl, 4 °C overnight); fibulin-4 serially diluted 1:2 in 2% milk, TBS, 2 h; detected with HRP-conjugated anti-Strep-tag antibody; both purified

Substance	binding [1]	further results
FLAG-EMILIN-1 (murine EMILIN-1 with a FLAG tag at the N-terminus) (from UniProt Q99K41 22-1017)	binds	–
FLAG-EMILIN-2 (murine EMILIN-2 with a FLAG tag at the N-terminus) (from UniProt Q8K482 34-1074)	no binding	–
endogenous fibulin-4 secreted in the medium of MC3T3-E1 cells (from UniProt Q9WVJ9 28-443)	–	binding [2]: binds
recombinant murine C-terminally 2xStrepII tagged full length fibulin-4 (from UniProt Q9WVJ9 28-443)	–	binding [3]: binds
